Assay results: paper PMC3325275
Residue numbers refer to the chain shown, from its start. Construct, isoform or probe ends are uncertain for at least one entry. For some of these results: No signal at the amounts used counts as a negative. For some of these results: Weaker means in comparison with the reference protein, sequence or condition of that experiment. For some of these results: Tags and fusion partners may be left off the protein sequences shown. For some of these results: The direction of at least one scale is not stated here.

Sequences of proteins named here, by UniProt entry; tags and fusion partners are left off. A change or cut given only in a name is not applied to a line headed by its entry. A line that says so, or that is headed by a name, gives the form on record, which may keep a tag or linker.
UniProt O27527: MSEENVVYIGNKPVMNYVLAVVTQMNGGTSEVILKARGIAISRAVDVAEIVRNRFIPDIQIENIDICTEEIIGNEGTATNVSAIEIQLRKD
UniProt P60849, other isoform, or with tags, fused parts or gaps: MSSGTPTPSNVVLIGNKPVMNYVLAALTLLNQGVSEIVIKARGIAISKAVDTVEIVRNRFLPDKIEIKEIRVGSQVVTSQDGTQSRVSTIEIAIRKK

Experiments:
Test in all cases: SPR
[1] = target: T1, Mth10b N11KI39RT77R (Methanobacterium thermoautotrophicum ΔH) (UniProt O27527); conditions: 0.3 M NaCl, high cooperativity; SPR (BIAcore 3000, SA chip): 20 mM Tris, 1 mM EDTA, 0.005% Tween20, pH 7.5, with 0, 0.1 or 0.3 M NaCl, 25°C; recombinant …; residues 1-91; label: 5'-biotin on forward strand; probe letters rebuilt from the primers and the genome
T1 sequence (looked up): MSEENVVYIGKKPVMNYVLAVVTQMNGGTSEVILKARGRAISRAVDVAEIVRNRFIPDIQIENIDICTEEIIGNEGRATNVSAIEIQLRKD

[2] = target: Sso10b K16NR44IR83T (Sulfolobus solfataricus) (UniProt P60849); conditions: 0.3 M NaCl, almost no response at 100 uM, non-specific chip interaction; SPR (BIAcore 3000, SA chip): 20 mM Tris, 1 mM EDTA, 0.005% Tween20, pH 7.5, with 0, 0.1 or 0.3 M NaCl, 25°C; recombinant protein; label: 5'-biotin on forward strand; probe letters rebuilt from the primers and the genome
[3] = target: T2, Mth10b T77R (Methanobacterium thermoautotrophicum ΔH) (UniProt O27527); conditions: 0.1 M NaCl, only 18.0 RU at 100 uM; SPR (BIAcore 3000, SA chip): 20 mM Tris, 1 mM EDTA, 0.005% Tween20, pH 7.5, with 0, 0.1 or 0.3 M NaCl, 25°C; recombinant protein; residues 1-91; label: 5'-biotin on forward strand; probe letters rebuilt from the primers and the genome
T2 sequence (looked up): T1 sequence (looked up) with K11N, R39I

[4] = target: Sso10b wild type (Sulfolobus solfataricus) (UniProt P60849); conditions: 0.3 M NaCl, about 120 RU at 1 uM, non-specific chip interaction; SPR (BIAcore 3000, SA chip): 20 mM Tris, 1 mM EDTA, 0.005% Tween20, pH 7.5, with 0, 0.1 or 0.3 M NaCl, 25°C; recombinant protein; label: 5'-biotin on forward strand; probe letters rebuilt from the primers and the genome

With “GTGATGTCAGAGGAGAATGTAGTATACATCGGAAACAAGCCTGTAATGAACTATGTTCTGGCCGTGGTTACTCAGATGAACGGTGGGACCAGTGAAGTGATCCTTAAAGC (double strand) [110 bp mth10b fragment]” the binding signal (fold lower affinity than in 0.1 M NaCl) [1] was 70, the binding result [2] was “no binding” and the binding result [3] was “binds more weakly”. “GTGATGTCAGAGGAGAATGTAGTATACATCGGAAACAAGCCTGTAATGAACTATGTTCTGGCCGTGGTTACTCAGATGAACGGTGGGACCAGTGAAGTGATCCTTAAAGC (double strand) [110 bp mth10b fragment]”: binds [4].
